Assay results: article PMC7827474, “DnaJ Proteins Regulate WUS Expression in Shoot Apical Meristem of Arabidopsis”
No constants are given. Whether binding was seen depends on the method and setting. Binding can be weak; no strength is given. For some assays here: Binding seen in cells or lysates may run through a third protein.

Sequences of proteins named here, by UniProt entry; tags and fusion partners are left off. A change or cut given only in a name is not applied to a line headed by its entry.
UniProt Q9T061: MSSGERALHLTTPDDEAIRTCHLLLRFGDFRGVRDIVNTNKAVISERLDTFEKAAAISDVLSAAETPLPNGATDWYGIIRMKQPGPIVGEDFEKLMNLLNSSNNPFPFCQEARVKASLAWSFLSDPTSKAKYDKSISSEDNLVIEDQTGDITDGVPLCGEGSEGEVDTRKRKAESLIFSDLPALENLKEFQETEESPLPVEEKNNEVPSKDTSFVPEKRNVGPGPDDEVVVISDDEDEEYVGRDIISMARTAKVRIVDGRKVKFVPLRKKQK
UniProt Q9LXB9: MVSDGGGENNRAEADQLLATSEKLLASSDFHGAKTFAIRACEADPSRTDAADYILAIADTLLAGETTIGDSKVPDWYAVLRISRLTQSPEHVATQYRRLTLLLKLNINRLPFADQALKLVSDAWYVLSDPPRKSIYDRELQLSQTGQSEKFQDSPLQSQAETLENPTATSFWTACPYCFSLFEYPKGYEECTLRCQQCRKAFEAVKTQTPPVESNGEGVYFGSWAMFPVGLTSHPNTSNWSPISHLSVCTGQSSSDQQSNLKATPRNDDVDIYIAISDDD

Columns and labels:
WUS-YFPn (Arabidopsis) = WUS-YFPn (Arabidopsis) (UniProt Q9SB92); assay: split reporter; BiFC with YFPn and YFPc fusions in Nicotiana benthamiana leaf epidermal cells, Agrobacterium infiltration, with Coilin:RFP as nuclear marker; confocal microscopy
MBP:WUS = target: T1, MBP:WUS (Arabidopsis thaliana, UniProt Q9SB92 1-292); assay: native gel or EMSA; MBP:WUS and MBP:SDJ1/SDJ3/At5g09540 with Texas Red-labelled WUS promoter probe (TAAT motif); 10 mM HEPES pH 7.8, 20 mM KCl, 1 mM MgCl2, 22 °C, 30 min; 8% polyacrylamide gel; both purified
T1 sequence: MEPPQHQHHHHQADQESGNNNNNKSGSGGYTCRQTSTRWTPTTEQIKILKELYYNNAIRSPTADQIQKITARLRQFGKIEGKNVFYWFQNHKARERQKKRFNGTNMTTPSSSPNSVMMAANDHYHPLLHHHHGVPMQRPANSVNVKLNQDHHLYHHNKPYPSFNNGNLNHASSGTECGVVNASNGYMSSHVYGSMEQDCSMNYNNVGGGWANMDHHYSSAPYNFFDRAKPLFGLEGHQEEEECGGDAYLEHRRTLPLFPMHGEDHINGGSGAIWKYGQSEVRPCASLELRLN

| Substance | binding (WUS-YFPn (Arabidopsis)) | binding (MBP:WUS) |
| --- | --- | --- |
| At4g11930-YFPc (from UniProt Q9T061) | binds | – |
| MBP-At5g09540 (from UniProt Q9LXB9) | – | binds |
